Results: US20140328850A1
These are yes or no findings as the source states them, for the method shown. Some binding calls cover weakened binding; strength is not graded here.

Sequences of proteins named here, by UniProt entry; tags and fusion partners are left off. A change or cut given only in a name is not applied to a line headed by its entry.
UniProt Q9ULZ1: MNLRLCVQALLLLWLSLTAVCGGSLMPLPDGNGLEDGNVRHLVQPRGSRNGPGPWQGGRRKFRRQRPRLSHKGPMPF

Biological target: apelin (UniProt Q9ULZ1)
Assay: ELISA on biotinylated apelin peptides captured on neutravidin plates

binding: binds
B1: antibody A (Ab A) (antibody, V domains shown)
VH: NVQLVESGGGLVKPGGSLKLSCVASGFIFSDYVMSWVRQTPEKRLEWVATISDGGIYTSYPDNIKGRFTISRDNANNKLYLQMSHLRSEDTAMYFCSRAAITSDDFDFWGQGTALTVSS
VL: DIVMSQSPSSLAVSAGEKVTMSCKSSQSLLDSRTRKNYLAWYQQKPGQSPKLLISWASIRESGVPDRFTGSGSGTDFTLSISSVQAEDLAVYYCKQSYYLLTFGAGTKLELKR
